According to PMC4086815:
Results are given in words; binding and its absence hold for the method and conditions named. For some assays here: In cells and extracts the contact can be indirect. Some binding calls cover weakened binding; strength is not graded here. Sequences can lack the tags named with a protein.

Chains of the proteins cited; added tags and fusions are not shown.
UniProt P38907: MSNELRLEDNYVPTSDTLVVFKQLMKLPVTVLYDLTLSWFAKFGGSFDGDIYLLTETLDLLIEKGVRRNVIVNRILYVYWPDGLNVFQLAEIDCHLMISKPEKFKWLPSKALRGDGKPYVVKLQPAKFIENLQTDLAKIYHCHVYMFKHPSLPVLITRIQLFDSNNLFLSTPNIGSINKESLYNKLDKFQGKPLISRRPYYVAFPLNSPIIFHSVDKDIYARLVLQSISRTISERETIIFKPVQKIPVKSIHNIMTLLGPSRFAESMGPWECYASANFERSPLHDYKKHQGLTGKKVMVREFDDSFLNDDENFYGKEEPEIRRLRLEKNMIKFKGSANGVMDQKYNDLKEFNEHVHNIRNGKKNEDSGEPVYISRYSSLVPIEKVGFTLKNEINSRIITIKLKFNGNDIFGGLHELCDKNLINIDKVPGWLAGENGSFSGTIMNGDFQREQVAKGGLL
UniProt Q02732: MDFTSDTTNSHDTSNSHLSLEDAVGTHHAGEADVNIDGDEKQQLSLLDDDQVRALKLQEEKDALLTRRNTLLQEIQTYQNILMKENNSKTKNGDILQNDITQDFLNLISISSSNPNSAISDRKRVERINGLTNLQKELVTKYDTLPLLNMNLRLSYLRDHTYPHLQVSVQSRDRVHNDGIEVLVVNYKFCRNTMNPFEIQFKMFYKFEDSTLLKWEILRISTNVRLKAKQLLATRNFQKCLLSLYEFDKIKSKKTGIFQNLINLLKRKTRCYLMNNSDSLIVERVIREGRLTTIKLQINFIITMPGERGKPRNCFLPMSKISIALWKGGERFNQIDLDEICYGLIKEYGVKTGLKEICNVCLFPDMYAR
UniProt P47167: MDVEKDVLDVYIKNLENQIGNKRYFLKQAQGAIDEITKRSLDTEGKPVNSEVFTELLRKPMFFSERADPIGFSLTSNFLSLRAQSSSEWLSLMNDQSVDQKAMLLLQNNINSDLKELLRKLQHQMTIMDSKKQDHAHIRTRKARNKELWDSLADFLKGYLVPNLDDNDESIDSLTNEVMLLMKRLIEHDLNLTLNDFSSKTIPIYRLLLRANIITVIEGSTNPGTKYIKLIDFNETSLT

T1: GST-Bbp1p (budding yeast) (UniProt Q12365)
T1 sequence: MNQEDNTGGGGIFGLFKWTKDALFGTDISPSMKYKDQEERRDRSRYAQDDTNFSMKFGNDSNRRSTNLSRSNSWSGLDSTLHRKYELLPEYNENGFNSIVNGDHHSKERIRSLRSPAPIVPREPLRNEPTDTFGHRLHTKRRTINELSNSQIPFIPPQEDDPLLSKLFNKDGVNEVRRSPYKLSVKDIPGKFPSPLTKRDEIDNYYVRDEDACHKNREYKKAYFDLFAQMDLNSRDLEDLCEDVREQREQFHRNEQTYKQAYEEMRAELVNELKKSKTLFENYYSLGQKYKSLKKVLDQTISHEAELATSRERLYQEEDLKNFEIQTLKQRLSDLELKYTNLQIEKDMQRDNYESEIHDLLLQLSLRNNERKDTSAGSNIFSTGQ


Legend:
[1] = target: T1, GST-Bbp1p (budding yeast); experiment: pull-down; purified bead-bound GST-Bbp1p (glutathione Sepharose) mixed with cell extracts of AP22 yeast expressing HA-tagged proteins; eluted proteins blotted with anti-HA and anti-GST; only the target purified
[2] = target: Chl4p fused to the GAL4 binding domain (budding yeast) (UniProt P38907); experiment: two-hybrid; strain PJ69-4A; pGAD424 (GAL4 activation domain fusions of Bbp1p) and pGBT9 (GAL4 binding domain fusions); growth at 30 C on SC plates lacking leucine, tryptophan and histidine
[3] = target: Ctf19p fused to the GAL4 binding domain (budding yeast) (UniProt Q02732); experiment: as above
[4] = target: BD-Mcm22p (budding yeast) (UniProt P47167); experiment: as above

Row | Molecule | binding [1] | binding [2] | binding [3] | binding [4]
1 | HA-Chl4p (from UniProt P38907 1-458) | binds |  |  | 
2 | HA-Ctf19p (from UniProt Q02732 1-369) | binds |  |  | 
3 | Bbp1p, full length ORF fused to the GAL4 activation domain (protein, UniProt Q12365 1-385) MNQEDNTGGGGIFGLFKWTKDALFGTDISPSMKYKDQEERRDRSRYAQDDTNFSMKFGNDSNRRSTNLSRSNSWSGLDSTLHRKYELLPEYNENGFNSIVNGDHHSKERIRSLRSPAPIVPREPLRNEPTDTFGHRLHTKRRTINELSNSQIPFIPPQEDDPLLSKLFNKDGVNEVRRSPYKLSVKDIPGKFPSPLTKRDEIDNYYVRDEDACHKNREYKKAYFDLFAQMDLNSRDLEDLCEDVREQREQFHRNEQTYKQAYEEMRAELVNELKKSKTLFENYYSLGQKYKSLKKVLDQTISHEAELATSRERLYQEEDLKNFEIQTLKQRLSDLELKYTNLQIEKDMQRDNYESEIHDLLLQLSLRNNERKDTSAGSNIFSTGQ |  | binds | binds | binds
